# In US4481138A, “Heptadecapeptide” (Eisai Co., Ltd., priority 1981, dated 1984):
# Not every detail of the peptide structures is certain; ends, links or a residue may be inferred.
# Tests used:
# [1] = test system: mouse vas deferens; assay: Inhibition of electrically induced contraction, mouse vas deferens (Method B); assay type: cell-based; conditions: electric stimulus
# [2] = test system: longitudinal muscle preparation of guinea pig ileum; assay: Inhibition of electrically induced contraction, longitudinal muscle preparation of guinea pig ileum (Method A); assay type: cell-based
structure (smiles),measurement,setting,value
"CC[C@H](C)[C@H](NC(=O)[C@H](CCCNC(=N)N)NC(=O)[C@H](CCCNC(=N)N)NC(=O)[C@H](CC(C)C)NC(=O)[C@H](Cc1ccccc1)NC(=O)CNC(=O)CNC(=O)[C@@H](N)Cc1ccc(O)cc1)C(=O)N[C@@H](CCCNC(=N)N)C(=O)N1CCC[C@H]1C(=O)N[C@@H](CCCCN)C(=O)N[C@@H](CC(C)C)C(=O)N[C@@H](CCCCN)C(=O)N[C@@H](Cc1c[nH]c2ccccc12)C(=O)N[C@@H](CC(=O)O)C(=O)N[C@@H](CC(N)=O)C(=O)N[C@@H](CCC(N)=O)C(=O)O [Substance of this invention, Tyr--Gly--Gly--Phe--Leu--Arg--Arg--Ile--Arg--Pro--Lys--Leu Lys--Trp--Asp--Asn--Gln]","potency relative to morphine, inhibition of contraction of mouse vasa deferentia",[1],about 30 times that of morphine
same,opioid activity relative to morphine,"[2]; general statement in b2, test not named there",several hundred times stronger than morphine
same,"potency relative to morphine, inhibition of contraction of longitudinal muscle of guinea pig ileum","[2]; guinea pig ileum, electric stimulus",about 150 times that of morphine
